Results deposited as PubChem BioAssay AID686943 (Drosophila RNAi Screening Center, 2013).
The screen tested about 23,000 reagents; shown is a random part of those with a known target gene and a result. 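Extra replicates exist only for a retested subset of genes; insulin dose and duration not given; both raised and lowered dpERK matter.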 A plus sign joins genes that one reagent is predicted to hit. Not all columns of the deposit are shown. Reagent sequences are not shown. The record does not give: the amount of reagent, the time to read-out.

- Aim: 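Knockdowns that increase or decrease active ERK after insulin receptor stimulation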 (primary screen)
- System: Drosophila S2R+ haemocyte-like cells expressing YFP-tagged ERK (Rolled)
- Reagent: long dsRNA against Drosophila genes
- Treatment: insulin stimulation versus unstimulated cells; dose and duration not given
- Measured: 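Antibody staining for doubly phosphorylated ERK divided by ERK-YFP signal, as plate z-scores, in insulin-treated and untreated cells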
- Reading the numbers: replicate 1, z-score of dpERK with insulin: higher = more active ERK per ERK-YFP after insulin

replicate 1, z-score of dpERK with insulin, by gene and reagent
CG5768: DRSC15870 -0.2
Sry-alpha: DRSC16867 -1.45
Ilp5: DRSC08998 -0.08
blot: DRSC09485 -0.11; DRSC11328 -1.12
msl-3: DRSC11371 0.16
CG15155: DRSC02456 -0.65
OXA1L: DRSC09672 0.01
Polr1C: DRSC02719 -0.17
ND-B17: DRSC01981 -0.07
CG13436: DRSC06396 0.25
Ddr: DRSC00922 0.38; DRSC00923 -0.28; DRSC02150 -1.38; DRSC03229 -0.25; DRSC03230 0.04; DRSC22818 0.69
IFT52: DRSC03271 0.49
CG17127: DRSC02581 0.58
psq: DRSC07668 -3.34
RhoGAP71E: DRSC10232 2.44; DRSC10837 4; DRSC10838 1.37
CG13643: DRSC14641 -0.35; DRSC14642 0.17
CG18278 + CG30059: DRSC05418 0.9

Quoted from the listing (6 entries):
replicate 1, z-score of dpERK with insulin, by gene and reagent
ND-B17: DRSC01981 -0.07
CG13436: DRSC06396 0.25
Ddr: DRSC00922 0.38; DRSC00923 -0.28; DRSC02150 -1.38; DRSC03229 -0.25

Next reagents follow.
replicate 1, z-score of dpERK with insulin, by gene and reagent
CG14817: DRSC18547 -0.16
Reck: DRSC10504 0; DRSC10505 -0.81
PGRP-LD + Pmi: DRSC10512 -0.16; DRSC10513 1.12
yuri: DRSC01453 -0.64; DRSC01454 0.22; DRSC01943 1; DRSC01972 0.1
CG3568: DRSC18312 -0.23
CG31797: DRSC02476 0; DRSC02477 0.88
CG15254: DRSC01870 -0.15; DRSC21765 0.63
hppy: DRSC07014 1.01; DRSC07015 0.07; DRSC07016 -0.39
slx1: DRSC12290 0.56
CG4611: DRSC10434 1.7
Or24a: DRSC00768 0.21
CG12744: DRSC06164 0.5
Mics1: DRSC12537 0.36
Hydr1: DRSC07063 -0.22
Gr43a: DRSC06658 0.39
Actbeta: DRSC17185 0.52; DRSC17217 0.1
bnb: DRSC20314 -0.45
Nipped-A: DRSC04882 0.1; DRSC04883 -2.24; DRSC04884 -2; DRSC07738 -1.78; DRSC22386 -0.72
Cyp6t1: DRSC20564 0.46
CG30195: DRSC04155 -0.43
robl: DRSC07674 -0.67
CG7367: DRSC03049 -0.7
CG30015: DRSC05241 0.12; DRSC07027 0.4; DRSC07028 0.24
Dh44-R2: DRSC06141 -0.03; DRSC06281 -0.21
Roc1b + Cdc5: DRSC08687 0.24
CG6340: DRSC19987 -0.91
Jhbp15: DRSC15217 0.75
CG13585: DRSC04221 0.06
Exn: DRSC09673 -1.6; DRSC10077 -0.08
